Test results from publication PMC4175344.
These are yes or no findings as the source states them, for the method shown. In cells and extracts the contact can be indirect. Some entries that bind do so weakly or less than the wild type. For part of these data: Where a sequence is shown, tags or fusion partners need not be part of it.

Amino acid sequences for entries named in this document (tags omitted).
UniProt P52947: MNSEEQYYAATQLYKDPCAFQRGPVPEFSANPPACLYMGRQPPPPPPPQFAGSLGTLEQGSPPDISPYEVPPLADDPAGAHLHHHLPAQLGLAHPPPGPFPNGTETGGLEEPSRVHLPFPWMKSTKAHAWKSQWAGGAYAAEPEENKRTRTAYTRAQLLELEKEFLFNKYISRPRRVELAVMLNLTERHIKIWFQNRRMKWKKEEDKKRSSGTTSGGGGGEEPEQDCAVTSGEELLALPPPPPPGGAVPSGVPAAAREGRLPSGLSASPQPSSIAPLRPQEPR

Columns and labels:
[1] = molecular target: Flag-Pdx-1 (pancreatic duodenal homeobox-1) (UniProt P52947); assay: co-IP; cells cotransfected with Flag-Pdx-1, GFP-ATF3 or GFP-ATF3(ΔC), with or without ethanol treatment; lysates immunoprecipitated with FLAG antibody, Western blotting; RIPA buffer lysis at 4 °C
[2] = molecular target: endogenous Pdx-1 (rat (endogenous in INS-1)) (UniProt P52947); assay: co-IP; endogenous Pdx-1 immunoprecipitated from INS-1 cells treated with 100 mM ethanol in the presence or absence of Atf3 siRNA; 1 mg lysate, 2 μg antibody, immunoblot

Binder	binding [1]	binding [2]
GFP-ATF3 (human wild-type ATF3) (protein, UniProt P18847 1-181) MMLQHPGQVSASEVSASAIVPCLSPPGSLVFEDFANLTPFVKEELRFAIQNKHLCHRMSSALESVTVSDRPLGVSITKAEVAPEEDERKKRRRERNKIAAAKCRNKKKEKTECLQKESEKLESVNAELKAQIEELKNEKQHLIYMLNLHRPTCIVRAQNGRTPEDERNLFIQQIKEGTLQS	binds	–
endogenous Atf3 (activating transcription factor 3) induced by ethanol (protein, UniProt P29596 1-181) MMLQHPGQVSASEVSATAIVPCLSPPGSLVFEDFANLTPFVKEELRFAIQNKHLCHRMSSALESVTINNRPLEMSVTKSEVAPEEDERKRRRRERNKIAAAKCRNKKKEKTECLQKESEKLESVNAELKAQIEELKNEKQHLIYMLNLHRPTCIVRAQNGRTPEDERNLFIQQIKEGTLQS	–	binds
GFP-ATF3(ΔC), human ATF3(ΔC,101–181) with a C-terminal deletion (domain or fragment, UniProt P18847 1-100) MMLQHPGQVSASEVSASAIVPCLSPPGSLVFEDFANLTPFVKEELRFAIQNKHLCHRMSSALESVTVSDRPLGVSITKAEVAPEEDERKKRRRERNKIAA	no binding	–
